PubChem BioAssay AID485314 (National Center for Advancing Translational Sciences (NCATS), 2010)
“And” between values parts separate entries of the source, which are not always exact repeats. Equal values may be shown once. About 4,500 (1.3%) of roughly 340,000 compounds were called active. This list was built around the results that the source calls inconclusive (neither active nor inactive); the mix of calls is not that of the screen. The call rests on the fitted dose curve; in most records, active means well fitted inhibition curve with a large enough effect; inconclusive means small, poorly fitted or top-dose-only effect, or another doubt; inactive means no such curve, though single readings can be large or run the other way. Potencies of inconclusive entries are doubtful fits and often do not repeat.

The compounds below were run against DNA polymerase beta (Homo sapiens) (UniProt P06746) (assay: qHTS Assay for Inhibitors of DNA Polymerase Beta). Settings: Pol beta primer extension/strand displacement, fluorescence kinetic; activity change, negative = inhibition: at 114 µM (top of the series).
Method in brief: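 Kinetic readout of DNA synthesis with strand displacement by Pol beta. Compound and 10 nM enzyme sit 15 min at room temperature; 50 nM substrate starts the reaction, read immediately and at 10 min.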
On the % scale 0 is the no-effect control and ±100 the full control effect; potency means the concentration at half of the fitted maximal effect.

Potency, inconclusive:
CCOC(=O)CN(C(=O)CSc1nnc(CNc2ccc(F)cc2)o1)c1ccccc1 0.141 µM [inhibitor, full curve, poor fit]
COc1ccc(-c2noc(CN(C(=O)c3cccs3)C(C)C)n2)cc1 4.47 µM [inhibitor, single point]
COC(=O)c1c(NC(=O)Cc2cccs2)sc2c1CCCC2 20 µM [inhibitor, full curve]
CN1CCN(c2nc3ccccn3c(=O)c2C=O)CC1 0.562 µM [inhibitor, full curve, poor fit]
CCN1CCN(Cc2ccc(NC(=O)c3ccc(C)c(NC(=O)c4csc(-c5ccncc5)n4)c3)cc2C(F)(F)F)CC1 89.1 µM [inhibitor, single point]
COc1cc(/C=C2/SC(=S)N(CC(=O)O)C2=O)ccc1OCC(=O)Nc1ccc(C)c(C)c1 89.1 µM [inhibitor, single point]
O=C(Nc1cc(S(=O)(=O)N2CCCCC2)ccc1O)c1ccccc1NS(=O)(=O)c1ccc(F)c(F)c1 39.8 µM [inhibitor, partial curve]
Cc1cccn2c(=O)cc(CSc3nnc(NC(=O)COc4ccc(F)cc4)s3)nc12 25.1 µM [inhibitor, full curve, poor fit]
O=C(Cn1cc(CCO)nn1)N1CCNCC1 89.1 µM [inhibitor, single point]
C/C(=N\NC(=O)C(C)Nc1cccc(Cl)c1)c1ccc([N+](=O)[O-])cc1 (stereo unspecified) 0.708 µM [inhibitor, partial curve, poor fit]
O=C(C1CC(c2ccc(F)cc2)=NO1)N1CCCc2ccccc21 (stereo unspecified) 0.794 µM [inhibitor, full curve]
CN1CCN(NC(=O)c2cc(S(=O)(=O)N3CCOCC3)c(Cl)cc2Cl)CC1 89.1 µM [inhibitor, single point]
Cc1noc(C)c1COc1ccc(C(=O)NCc2ccccn2)cc1 89.1 µM [inhibitor, single point]
COc1ccc(C(=O)NNC(=O)C(=O)Nc2ccc(C)c(Cl)c2)cc1 79.4 µM [inhibitor, single point]
CCOC(=O)c1[nH]c(COC(=O)CCCOc2ccccc2)c(C(=O)OCC)c1C 89.1 µM [inhibitor, single point]
O=C1c2ccc3c4c(ccc(c24)C(=O)N1c1ccc(O)cc1)C(=O)N(c1ccc(O)cc1)C3=O 10 µM [inhibitor, partial curve, poor fit]
COc1ccc(-c2csc(NC(=O)c3ccccc3NS(=O)(=O)c3ccc(F)c(F)c3)n2)cc1 17.8 µM [inhibitor, partial curve, poor fit]
Cc1ccc(-n2nnc(-c3nsc(NC(=O)c4ccccc4C)n3)c2C)cc1Cl 0.158 µM [inhibitor, full curve]
O=C(Nc1ccc(F)cc1)N1CCN(c2ccc3nnc(-c4ccc(F)cc4)n3n2)CC1 794 nM [inhibitor, full curve, poor fit] and 25.1 µM [inhibitor, single point]
O=C(CCS(=O)(=O)c1ccc(Br)cc1)N1CCN(c2ccccc2)CC1 50.1 µM [inhibitor, partial curve]
Cc1ccc(C(=O)N2CCCC2)cc1S(=O)(=O)N1CCCCC1 39.8 µM [inhibitor, single point]
CCN1CCN(S(=O)(=O)c2ccc(C(C)(C)C)cc2)CC1 20 µM [inhibitor, partial curve, poor fit]
OC(CNCc1ccc(Cl)c(Cl)c1)c1ccccc1 (stereo unspecified) 2.82 µM [inhibitor, single point]
Cc1c(NC(=O)Cc2ccc(F)cc2)cccc1-c1nc2cccnc2s1 11.2 µM [inhibitor, single point]
COc1ccccc1OCCn1c(SCC(N)=O)nc2ccccc21 100 µM [inhibitor, single point]
O=C(c1ccccc1NS(=O)(=O)c1cccs1)N1CCOCC1 89.1 µM [inhibitor, single point]

Potency, active:
O=C(N/N=C/c1ccc(O)c(O)c1)c1ccc(CSc2cccc3cccnc23)cc1 3.16 µM
CCOc1ccc(Nc2nc(Cc3nnc(SCC(=O)O)o3)cs2)cc1 79.4 µM

Potency, inactive:
COc1ccccc1C(=O)N=Nc1c(O)[nH]c2ccc([N+](=O)[O-])cc12
COc1ccccc1-c1nnc(C2CCN(C(=O)c3cccc(Cl)c3)CC2)o1
Cc1sc2ncn(CC(=O)Nc3ccc(F)cc3Cl)c(=O)c2c1S(=O)(=O)N1CCN(c2ncccn2)CC1
COc1ccc(NC(=O)c2ccc3c(SCC(=O)O)c4c(nc3c2)CCCC4)cc1OC
COc1cc(-c2noc(CSc3nc(-c4ccc(F)cc4)cc(=O)[nH]3)n2)cc(OC)c1OC
CCOC(=O)C1CCN(C(=O)C(=O)Nc2ccc3nc4n(c(=O)c3c2)CCCCC4)CC1
COc1ccc(-c2c3c(=O)n(C)c(=O)n(C)c3cn2-c2cccc(N)c2)cc1
C=CCOc1cccc(C2C(C(=O)c3ccco3)=C(O)C(=O)N2Cc2ccncc2)c1 (stereo unspecified)
CCCCN(C(=O)Oc1ccccc1)C1CCS(=O)(=O)C1 (stereo unspecified)
Cc1ccc2c(cnn2C(=O)CCC(=O)NCc2ccccc2Cl)c1

Sorted by molar mass (largest number first): some entries from above
Potency, inactive:
COc1cc(-c2noc(CSc3nc(-c4ccc(F)cc4)cc(=O)[nH]3)n2)cc(OC)c1OC
COc1ccc(NC(=O)c2ccc3c(SCC(=O)O)c4c(nc3c2)CCCC4)cc1OC
CCOC(=O)C1CCN(C(=O)C(=O)Nc2ccc3nc4n(c(=O)c3c2)CCCCC4)CC1
CCCCN(C(=O)Oc1ccccc1)C1CCS(=O)(=O)C1 (stereo unspecified)

Next part:

Activity change, negative = inhibition, inconclusive:
COc1cc(NC(=O)c2cc(Cl)ccc2Cl)ccc1NC(=O)c1cc2ccccc2o1 -37.4% [inhibitor]
Cc1ccc(-c2nc(SCC(=O)Nc3ccccc3OC(F)F)c3c(C)c(C(=O)O)sc3n2)cc1 -114% [inhibitor]
NC(=O)NC(=O)CSc1nc2cc([N+](=O)[O-])ccc2n1-c1cccc(C(F)(F)F)c1 -34.8% [inhibitor]
